# Measurements: patent publication US20050202443
# For at least one entry, the source does not settle the construct or the ends of the probe.
# Test system: BccI
# Test: enzyme reaction in vitro
# Conditions: isoschizomer comparison, same lambda pattern; purified native protein; only the motif is given
sequence,measurement,value
CCATC (double strand) [HpyC1I recognition site in lambda DNA],activity on this sequence,active
